Common to all, as to assay: DAPPL (digital affinity profiling via proximity ligation, sequencing)
Common to all, as to conditions: 10 mM Tris-HCl pH 7.5, 50 mM NaCl, 1 mM DTT, 4% glycerol, room temperature, 30 min; GST-TFs on glutathione beads, 16-mer random dsDNA library, 0.1% …; high values mean tight binding; double strand, one strand shown; scale: fold enrichment (6-mer frequency, TF over GST control)

One assay addresses T1, ELK3 (UniProt P41970).
T1 sequence: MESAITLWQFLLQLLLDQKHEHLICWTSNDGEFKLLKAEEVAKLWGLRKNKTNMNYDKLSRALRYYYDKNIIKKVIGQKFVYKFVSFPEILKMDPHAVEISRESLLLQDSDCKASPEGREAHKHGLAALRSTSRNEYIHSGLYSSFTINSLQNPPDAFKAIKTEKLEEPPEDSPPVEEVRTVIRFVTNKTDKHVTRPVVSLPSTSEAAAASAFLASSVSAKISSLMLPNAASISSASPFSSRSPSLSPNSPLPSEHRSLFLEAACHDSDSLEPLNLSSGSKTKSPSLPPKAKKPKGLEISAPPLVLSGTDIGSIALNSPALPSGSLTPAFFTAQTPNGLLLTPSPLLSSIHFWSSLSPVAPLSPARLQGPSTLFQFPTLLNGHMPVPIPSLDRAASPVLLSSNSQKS

The target of a further assay is T2, SPIC (UniProt Q8N5J4).
T2 sequence: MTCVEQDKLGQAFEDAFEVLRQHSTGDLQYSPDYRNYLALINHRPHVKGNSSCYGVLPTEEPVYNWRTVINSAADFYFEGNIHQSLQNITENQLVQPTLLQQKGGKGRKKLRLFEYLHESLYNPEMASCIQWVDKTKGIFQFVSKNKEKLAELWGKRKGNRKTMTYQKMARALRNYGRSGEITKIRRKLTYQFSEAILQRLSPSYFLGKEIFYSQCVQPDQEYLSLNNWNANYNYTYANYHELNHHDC

A further assay deals with T3, ELK1 (UniProt P19419).
T3 sequence: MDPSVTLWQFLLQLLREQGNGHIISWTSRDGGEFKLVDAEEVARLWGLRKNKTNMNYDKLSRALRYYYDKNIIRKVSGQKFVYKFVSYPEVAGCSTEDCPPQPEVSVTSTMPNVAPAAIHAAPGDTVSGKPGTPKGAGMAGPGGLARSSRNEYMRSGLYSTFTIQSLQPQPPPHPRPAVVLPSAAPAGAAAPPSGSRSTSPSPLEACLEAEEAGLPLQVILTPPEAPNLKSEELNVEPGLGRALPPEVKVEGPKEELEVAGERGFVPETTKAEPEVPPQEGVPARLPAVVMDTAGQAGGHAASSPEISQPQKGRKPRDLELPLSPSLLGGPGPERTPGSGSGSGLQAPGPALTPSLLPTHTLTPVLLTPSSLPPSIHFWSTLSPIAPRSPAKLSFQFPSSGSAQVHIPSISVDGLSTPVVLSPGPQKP

The target in a further assay is T4, ETS2 (UniProt P15036).
T4 sequence: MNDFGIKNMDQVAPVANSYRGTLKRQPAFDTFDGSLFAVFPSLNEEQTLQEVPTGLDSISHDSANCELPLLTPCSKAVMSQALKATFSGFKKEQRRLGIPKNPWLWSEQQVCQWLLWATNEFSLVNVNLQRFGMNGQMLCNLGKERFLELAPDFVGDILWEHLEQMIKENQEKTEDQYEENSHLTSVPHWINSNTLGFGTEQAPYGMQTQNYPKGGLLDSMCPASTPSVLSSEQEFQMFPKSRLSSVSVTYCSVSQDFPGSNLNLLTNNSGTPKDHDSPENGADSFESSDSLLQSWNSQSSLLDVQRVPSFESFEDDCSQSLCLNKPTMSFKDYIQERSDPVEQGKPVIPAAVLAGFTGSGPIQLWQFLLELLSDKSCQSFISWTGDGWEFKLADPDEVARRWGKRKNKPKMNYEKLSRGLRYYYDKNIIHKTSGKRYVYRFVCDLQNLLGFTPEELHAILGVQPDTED

Another assay concerns the target T5, ETV3 (UniProt P41162-2).
T5 sequence: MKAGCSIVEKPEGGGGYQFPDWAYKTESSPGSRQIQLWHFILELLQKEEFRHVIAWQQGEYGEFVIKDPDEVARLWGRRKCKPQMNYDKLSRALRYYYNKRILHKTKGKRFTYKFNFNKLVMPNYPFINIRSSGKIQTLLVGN

This is a selection; strong and weak results do not stand in their true shares. At the low end of the ranking the order means little.

Take TCTCTG: the binding signal in the assay with ELK3 is 1.52; with SPIC, 1.59. Regarding ATGCAT, the binding signal with ELK1 came to 1.21.

For the sequence ACTTTG, the binding signal with ELK1 worked out at 1.29. On to TTCCAG, for which the binding signal came to 1.07 with ELK3 and 1.02 in the assay with SPIC. The matching figures for GAATCC: 1.08 and 1.1. In the case of ACCCTA, the binding signal with ELK1 was found to be 1.36. In the case of TAAGGT, the values for the binding signal with ELK3 and with SPIC were 1.13 and 1.11, respectively. For the sequence TATACT, the binding signal in the assay with ELK3 and in the assay with SPIC was 1.43 throughout. Sequence TTAAAA displayed a binding signal in the assay with ELK1 of 1.15. The same measure, in the same setting: the value for CCTCGT was 1.1.

On to TGACGA, for which the binding signal with ELK3 turned out to be 0.979; with SPIC, 0.883. The matching figures for AGCTTT: 1.13 and 1.03.

Sequence ATGTAC came in with a binding signal in the assay with ELK1 of 1.31. Same read-out and setting: the value for CGATCC was 1.14. As for AAAATC, the binding signal with ELK3 amounted to 1.1; with SPIC it was 1.07. In the case of TCTGAT, the binding signal in the assay with ELK1 turned out to be 1.21. Sequence CTCATT had a binding signal with ELK1 of 1.32. Same read-out and setting: with TTGTCT the figure was 1.23. On the same count and under the same terms, with CTCTTC the figure was 1.64. ACAGAT: the binding signal amounted to 0.978 in the assay with ELK3 and 0.923 in the assay with SPIC. In turn, TCTCGA registered a binding signal with ELK1 of 1.34. Take CGTACT: the binding signal with ELK3 turned out to be 1.26; in the assay with SPIC, 1.12. With ATACTG, the binding signal with ELK1 stood at 1.09. As for TTAGTA, the binding signal with ELK3 stood at 1.08; with SPIC it was 1.16.

For the sequence GCTCAA, the binding signal is 1.01 with ELK3 and 1.19 in the assay with SPIC. For ATAAAC, the binding signal stood at 1.14 in the assay with ELK3 and 1.2 with SPIC.

AACAAA: the binding signal came to 1.27 with ELK3 and 1.14 with SPIC.

CCTCCC: the binding signal with ELK1 worked out at 1.43.

Regarding TACACC, in the assay with ELK1, the binding signal was 1.27. Still for that read-out and setting: the value for TTTTGC was 1.39. Same read-out and setting: the value for CTAGTT was 1.4. Consider AATTCA, for which the binding signal in the assay with ELK3 is 1.47; in the assay with SPIC, 1.32. TCACAC yielded a binding signal with ELK1 of 1.19. Consider CTGTTT, for which the binding signal with ELK3 was found to be 1.34; in the assay with SPIC, 1.31.

With TAACAA, in the assay with ELK1, the binding signal was determined as 1.22. In the case of GGTATA, the binding signal with ELK3 turned out to be 0.984; with SPIC, 0.998. The matching figures for TTCCCC: 1.61 and 1.87.

Turning to TTTTCA, the binding signal with ELK1 amounted to 1.19. As to CCTTGG, the binding signal came out at 1.41 with ELK1 and 1.25 with ETS2. For the sequence GGTCTT, the binding signal in the assay with ELK1 is 1.11; in the assay with ETS2, 1.23; in the assay with ETV3, 1.16. For the sequence CCGGTA, the binding signal in the assay with ELK1 came to 1.51; in the assay with ETS2, 1.54. Regarding TGGTAG, the binding signal with ELK1 was found to be 1.02; with ETS2, 1.04.

With GAATCT, the binding signal is 0.995 with ELK1 and 1.08 in the assay with ETS2. Consider TCTGGG, for which the values for the binding signal with ELK1 and in the assay with ETS2 were 1.06 and 0.985, respectively. The matching figures for ATTTTT: 1.14 and 1.1.

Consider ATTGAC, for which the binding signal with ELK1 was found to be 1.21; in the assay with ELK3, 1.16; with ETS2 it was 1.36. The matching figures for GGCCCC: 0.94, 0.993 and 1.03.

With TCCTAT, the binding signal with ELK1 was 1.56; in the assay with ETS2, 1.65.

In the case of CTTGGT, the results for the binding signal with ELK1, with ETS2 and with ETV3 were 1.44, 1.45 and 1.34, respectively.

Consider CGCTCT, for which the figures for the binding signal with ELK1 and with ETS2 were 1.25 and 1.31, respectively. The matching figures for GTTCCA: 0.984 and 1.13. In the case of CTCCTT, the binding signal stood at 1.72 in the assay with ELK1, 1.76 with ETS2 and 1.95 with ETV3. For the sequence TAGTAA, the binding signal with ELK1 was found to be 0.999; in the assay with ETS2, 0.987. For ATTTCA, the binding signal with ELK1 was 1.17; with ETS2, 1.22; in the assay with ETV3, 1.23. With CCTCTT, the binding signal was 1.45 with ELK1 and 1.56 with ETS2.

On to CTGGTT, for which the binding signal was found to be 1.3 with ELK1, 1.29 with ETS2 and 1.45 in the assay with ETV3. Turning to GGTCCT, the binding signal with ELK1 was determined as 0.945; in the assay with ELK3, 0.966; with ETS2, 0.911; with ETV3 it was 0.965.

As to CGACTT, the binding signal with ELK1 came to 1.85; in the assay with ETS2, 1.76. For GAAGCA, the binding signal is 1.35 in the assay with ELK1 and 1.32 with ETS2. Take ATTCTA: the binding signal with ELK1 turned out to be 1.21; with ETS2, 1.3. Take CCGCGT: the binding signal in the assay with ELK1 turned out to be 1.11; in the assay with ELK3, 0.955; with ETS2, 1.13. On to CCGCTA, for which the binding signal with ELK1 is 1.37; with ETS2, 1.32. Consider ATCCAA, for which the binding signal with ELK1 was 1.19; with ETS2, 1.18. The matching figures for TGTTCA: 1.31 and 1.2. The matching figures for CATCTG: 1.23 and 1.24. Regarding CTTCTG, the binding signal in the assay with ELK1 and with ETS2 was 1.34 in each case. For TGCGCG, the results for the binding signal with ELK1, with ETS2 and with ETV3 were 1.05, 0.897 and 1.03, respectively.

For the origin of these results see PMC7862700.
